This is an account of results in PubChem BioAssay AID292 (DTP/NCI, 2004).

In this experiment the test system is B6C3F1 mice, ip Sarcoma M5076, median survival T/C. The experiment is described as follows: NCI In Vivo Anticancer Drug Screen. Data for tumor model Sarcoma M5076 (intraperitoneal) in B6C3F1 mice. As to conditions: T/C endpoint: median survival time, higher T/C = longer survival. The essentials:
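Transplantable tumour in mice; compound-treated vs vehicle-treated groups. Read-out: survival. Value = treated/control ratio.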

Where [1] appears, read: dose: 800.0 mg/kg/injection, schedule: Q04DX004 (ip), vehicle: saline.
Where [2] appears, read: dose: 800.0 mg/kg/injection, schedule: Q04DX005 (ip), vehicle: saline.
Where [3] appears, read: dose: 800.0 mg/kg/injection, schedule: Q04DX004 (ip), vehicle: saline with Tween-80.

Each structure is given as a SMILES string. The list is a part of this screen's results and no random one: it gathers tests that were run many times, whatever their T/C, doses with no T/C, and many T/C values between a quarter and a half above the control. Further doses and runs are listed elsewhere. T/C gives the treated animals as a percentage of the vehicle group. Some doses have a count of surviving animals in place of a T/C: the source files T/C as zero there, which appears to mark a toxic dose or a test without result, not a measured value. Some survivor counts are full or nearly so, which does not show that the dose was tolerated: survival well below the control is almost never listed, so the zero probably covers shortened survival too. Counts of survivors are from the toxicity check (mostly the fifth day) where no day follows; animals may have died later. Schedule codes are those of the source, read here as Q, the interval in days (D) or hours (H), X, the number of doses. Some entries were tested several times; the values are given in rising order. Additions like (4×) give the number of equal values in this list. For survival time, the PubChem record calls one and a half times the control and up active, and a quarter to a half above the control has no call in these data; cut-offs in other NCI protocols can differ. Some T/C values carry the count of animals alive at the toxicity check (mostly the fifth day); without a count, all were alive then.

As to `c1cc2n(n1)CCN2`, the T/C is 103 and 111 % of control [8 of 10 alive on day 14] (dose: 100.0 mg/kg/injection, schedule: Q04DX004 (ip), vehicle: saline, evaluated on day 60); 101 (2×), 104 [9 of 10 alive on day 14], 105 (2×), 109, 110, 111 % of control (dose: 100.0 mg/kg/injection, schedule: Q04DX004 (ip), vehicle: saline, evaluated on day 75); 87, 89 [8 of 10 alive], 107, 108, 114 % of control (dose: 100.0 mg/kg/injection, schedule: Q04DX005 (ip), vehicle: saline, evaluated on day 75); 95 % of control (dose: 100.0 mg/kg/injection, schedule: Q04DX005 (ip), vehicle: saline, evaluated on day 100); 115 and 128 % of control (dose: 200.0 mg/kg/injection, schedule: Q04DX004 (ip), vehicle: saline, evaluated on day 60); 87, 93 [7 of 10 alive on day 14], 95 [9 of 10 alive on day 14], 97, 106, 107 [9 of 10 alive on day 9], 110, 115 % of control (dose: 200.0 mg/kg/injection, schedule: Q04DX004 (ip), vehicle: saline, evaluated on day 75). Moreover, the T/C is 94, 106, 113 % of control (3×) (dose: 200.0 mg/kg/injection, schedule: Q04DX005 (ip), vehicle: saline, evaluated on day 75); 95 % of control (dose: 200.0 mg/kg/injection, schedule: Q04DX005 (ip), vehicle: saline, evaluated on day 100); 123 and 141 % of control (dose: 400.0 mg/kg/injection, schedule: Q04DX004 (ip), vehicle: saline, evaluated on day 60); 91, 95, 103, 114 (2×), 114 [7 of 10 alive on day 14], 118, 120 % of control [9 of 10 alive on day 9] (dose: 400.0 mg/kg/injection, schedule: Q04DX004 (ip), vehicle: saline, evaluated on day 75); 100, 101, 119, 126, 131 % of control (dose: 400.0 mg/kg/injection, schedule: Q04DX005 (ip), vehicle: saline, evaluated on day 75); 102 % of control (dose: 400.0 mg/kg/injection, schedule: Q04DX005 (ip), vehicle: saline, evaluated on day 100). The T/C (dose: 800.0 mg/kg/injection, schedule: Q04DX004 (ip), vehicle: saline, evaluated on day 60) was 137 % of control [8 of 10 alive on day 14]; the T/C (dose: 800.0 mg/kg/injection, schedule: Q04DX004 (ip), vehicle: saline, evaluated on day 75) is 97 [9 of 10 alive on day 9], 107 [9 of 10 alive on day 9], 126, 144 % of control [9 of 10 alive on day 14]; the T/C under setting [2] is 112 and 114 % of control [9 of 10 alive on day 9]. Moreover, the survivor count reads like this: under setting [1], 1 of 10 on day 9, 2 of 10, 3 of 10 on day 14 (2×), 4 of 10 on day 9; under setting [2], 1 of 10 on day 9, 2 of 10 on day 9, 3 of 10, 5 of 8 on day 17.

Turning to `CCOc1cc2c(cc1C(C)c1ccc(OC)cc1)OCO2` (centres undefined), the survivor count (dose: 400.0 mg/kg/injection, schedule: Q04DX004 (ip), vehicle: distilled water + alcohol) is reported as 6 of 10 on day 14 and the survivor count (dose: 800.0 mg/kg/injection, schedule: Q04DX004 (ip), vehicle: distilled water + alcohol) is on record as 0 of 10 on day 14.

As for `Clc1ccc(-c2noc(CN3CCCCC3)n2)cc1`, the survivor count runs as follows: (dose: 400.0 mg/kg/injection, schedule: Q04DX004 (ip), vehicle: saline with Tween-80) 5 of 10 on day 14; under setting [3], 0 of 10 on day 14.

Consider `Clc1ccccc1C(Nc1cnccn1)Nc1cnccn1`, for which, under setting [3], the survivor count was 3 of 10 on day 14.

Take `COc1ccc(C[C@H](N)C(=O)NC2C(CO)OC(n3cnc4c(N(C)C)ncnc43)C2O)cc1` (some centres undefined): the survivor count under setting [1] is 0 of 10 on day 14.

`NNC(=O)c1ccncc1`: under “dose: 400.0 mg/kg/injection, schedule: Q04DX004 (ip), vehicle: saline”, the survivor count was 0 of 10 on day 9.

As to `CCN(CC)CC(=O)O[C@]1(CC)C(=O)OCc2c1cc1n(c2=O)Cc2cc3ccccc3nc2-1`, the T/C (dose: 16.0 mg/kg/injection, schedule: Q04DX004 (ip), vehicle: water) was 129 [9 of 10 alive on day 14] and 133 % of control. In addition, under “dose: 32.0 mg/kg/injection, schedule: Q04DX004 (ip), vehicle: water”, the survivor count is 1 of 10 on day 14 and 6 of 10 on day 14.

On to `CN(C)CCN1C(=O)c2cccc3cc(N)cc(c23)C1=O`, for which the T/C (dose: 21.6 mg/kg/injection, schedule: Q04DX004 (ip), vehicle: acid diluted with saline) is 139 % of control and the T/C (dose: 36.0 mg/kg/injection, schedule: Q04DX004 (ip), vehicle: acid diluted with saline) was 128 % of control. The survivor count is 6 of 10 on day 14 and 8 of 10 on day 14 (dose: 60.0 mg/kg/injection, schedule: Q04DX004 (ip), vehicle: acid diluted with saline); 0 of 10 on day 14 (dose: 100.0 mg/kg/injection, schedule: Q04DX004 (ip), vehicle: acid diluted with saline).

As for `COc1cc2c(cc1OC)[C@@H]1C(=O)c3ccc4c(c3O[C@@H]1CO2)C[C@H](C(C)C)O4`, the survivor count is, setting by setting: (dose: 100.0 mg/kg/injection, schedule: Q04DX004 (ip), vehicle: Klucel (hydroxypropylcellulose) (HPC)) 5 of 8 on day 14; (dose: 200.0 mg/kg/injection, schedule: Q04DX004 (ip), vehicle: Klucel (hydroxypropylcellulose) (HPC)) 0 of 8 on day 14.

Turning to `C[CH2][Sn]([CH2]C)([CH2]C(=O)OC)[CH2]C(=O)OC`, the survivor count (dose: 24.0 mg/kg/injection, schedule: Q04DX004 (ip), vehicle: saline with Tween-80) is 6 of 10 on day 14.

Consider `COC12[C@@H]3N[C@@H]3CN1C1=C(C(=O)C(NCCSSCCNC3=C(C)C(=O)C4=C(C3=O)C(COC(N)=O)[C@]3(OC)C5N[C@@H]5CN43)=C(C)C1=O)[C@@H]2COC(N)=O` (some centres undefined), for which the T/C was 129 % of control (dose: 1.5 mg/kg/injection, schedule: Q04DX004 (ip), vehicle: other); 130 % of control (dose: 1.56 mg/kg/injection, schedule: Q04DX004 (ip), vehicle: other); 143 % of control (dose: 3.12 mg/kg/injection, schedule: Q04DX004 (ip), vehicle: other); 143 % of control (dose: 6.25 mg/kg/injection, schedule: Q04DX004 (ip), vehicle: other). For the same molecule, the survivor count was 0 of 10 on day 14 (dose: 24.0 mg/kg/injection, schedule: Q04DX004 (ip), vehicle: other) and 8 of 10 on day 14 (dose: 25.0 mg/kg/injection, schedule: Q04DX004 (ip), vehicle: other).

Turning to `CCNC(=O)OCc1cnc(C)c(O)c1COC(=O)NCC`, the survivor count under setting [1] is 0 of 10 on day 14.

Turning to `Nc1nc(N)c2c(ccc3c2ccn3Cc2cccc([N+](=O)[O-])c2)n1`, the T/C by setting is: (dose: 4.75 mg/kg/injection, schedule: Q04DX004 (ip), vehicle: saline with Tween-80) 127 % of control; (dose: 9.5 mg/kg/injection, schedule: Q04DX004 (ip), vehicle: saline with Tween-80) 126 % of control; (dose: 18.75 mg/kg/injection, schedule: Q04DX004 (ip), vehicle: saline with Tween-80) 137 % of control; (dose: 19.0 mg/kg/injection, schedule: Q04DX004 (ip), vehicle: saline with Tween-80) 125 and 140 % of control. The survivor count reads like this: (dose: 37.5 mg/kg/injection, schedule: Q04DX004 (ip), vehicle: saline with Tween-80) 2 of 10 on day 14; (dose: 75.0 mg/kg/injection, schedule: Q04DX004 (ip), vehicle: saline with Tween-80) 0 of 10 on day 14.

In the case of `CN(C)CCOc1cccc2c1C(=O)c1ccccc1C2=O`, the survivor count runs as follows: (dose: 200.0 mg/kg/injection, schedule: Q04DX004 (ip), vehicle: water) 0 of 10 on day 14; (dose: 400.0 mg/kg/injection, schedule: Q04DX004 (ip), vehicle: water) 0 of 10 on day 14; (dose: 800.0 mg/kg/injection, schedule: Q04DX004 (ip), vehicle: water) 0 of 10 on day 14.

As for `CNC(=O)/C=C/C1=CN2C(=O)c3ccc(C)c(O)c3NC(OC)C2C1` (centres undefined), the T/C (dose: 200.0 micrograms/kg/injection, schedule: Q04DX004 (ip), vehicle: saline) is 138 % of control.

On to `COc1cc2c(c3c1c(=O)c1ccccc1n3C)C=CC(C)(C)O2`, for which the T/C (dose: 50.0 mg/kg/injection, schedule: Q04DX004 (ip), vehicle: saline with Tween-80) is 136 % of control. Moreover, the survivor count is listed as 5 of 10 on day 14 (dose: 100.0 mg/kg/injection, schedule: Q04DX004 (ip), vehicle: saline with Tween-80); 1 of 10 on day 14 (dose: 166.67 mg/kg/injection, schedule: Q04DX004 (ip), vehicle: saline with Tween-80); 7 of 10 on day 14 (dose: 200.0 mg/kg/injection, schedule: Q04DX004 (ip), vehicle: saline with Tween-80).
